Results from article PMC9493395.

Tests used:
[1] = biological target: T1, FAM83A (family with sequence similarity 83 A), wild type, FLAG-tagged (Mus musculus) (UniProt Q8K2P2); assay: co-IP; 3T3-L1 cells transfected with 3xFLAG-CMV-10 plasmid (WT or DUP1669-deleted Fam83a), harvested 48 h later; lysate precleared with protein A/G dynabeads; anti-flag or anti-CK1 added, 4 °C overnight; protein A/G agarose 2 h; washed with cold PBS 3 times; Western blot
T1 sequence: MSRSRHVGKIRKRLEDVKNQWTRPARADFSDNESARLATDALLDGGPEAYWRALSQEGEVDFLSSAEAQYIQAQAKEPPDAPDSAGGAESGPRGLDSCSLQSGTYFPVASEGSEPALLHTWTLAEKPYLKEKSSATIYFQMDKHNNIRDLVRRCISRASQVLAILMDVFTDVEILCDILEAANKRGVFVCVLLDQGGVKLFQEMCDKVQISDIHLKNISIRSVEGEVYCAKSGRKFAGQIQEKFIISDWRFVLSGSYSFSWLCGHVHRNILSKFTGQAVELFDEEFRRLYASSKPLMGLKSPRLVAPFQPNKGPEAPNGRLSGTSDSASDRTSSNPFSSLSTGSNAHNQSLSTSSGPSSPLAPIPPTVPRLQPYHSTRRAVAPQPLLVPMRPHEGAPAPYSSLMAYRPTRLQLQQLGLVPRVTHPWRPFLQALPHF

[2] = biological target: casein kinase 1 (CK1) (mouse (endogenous in 3T3-L1)); assay: as above

- binding [1]: binds
Molecule: casein kinase 1 (CK1) (mouse (endogenous in 3T3-L1)) (enzyme)

- binding [2]: binds
B1: FAM83A (family with sequence similarity 83 A), wild type, FLAG-tagged (protein, UniProt Q8K2P2-1 1-436)
chain: T1 sequence

No constants are given. Whether binding was seen depends on the method and setting. Binding seen in cells or lysates may run through a third protein. A result given as binding can be weak or reduced; the word gives no strength. Tags and fused reporters may be left off the sequences shown. Each block holds one molecule with its values, some of them ahead of it.
